# Laboratory results from patent US11717508B2, “Compounds, compositions, and methods for inhibiting bacterial growth” (priority 2016, dated 2023).
# Where “and” joins values, the source holds several entries; their conditions need not be identical. Equal entries are not always repeated. Where two headings read alike, the source gives them in different places. Further values from the same series stand in other lists.
# System: DosRST regulon
# Format: cell-based
smiles,measurement,setting,value
"C[C@@H]1CC[C@H]2[C@@H](C)C(=O)O[C@@H]3O[C@]4(C)CC[C@@H]1[C@]32OO4 [HC101A, artemisinin, reference compound]",Counts per million (CPM) WT_HC101A,gene MT0037 (Rv0032 bioF2),35.24 CPM and 27.75 CPM
same,log2 Fold change,gene MT0037 (Rv0032 bioF2),−1.613
same,Counts per million (CPM) WT_HC101A,gene MT0038 (Rv0033),2.484 CPM and 3.491 CPM
same,log2 Fold change,gene MT0038 (Rv0033),−2.538
same,Counts per million (CPM) WT_HC101A,gene MT0040 (Rv0035 fadD34),24.97 CPM and 29.56 CPM
same,log2 Fold change,gene MT0040 (Rv0035 fadD34),−1.712
same,Counts per million (CPM) WT_HC101A,gene MT0179 (Rv0170),123.2 CPM and 102.2 CPM
same,Counts per million (CPM) WT_HC101A,gene MT0180 (Rv0171),138.6 CPM and 130 CPM
same,Counts per million (CPM) WT_HC101A,gene MT0181 (Rv0172),183.6 CPM and 197.8 CPM
same,Counts per million (CPM) WT_HC101A,gene MT0182 (Rv0173 IprK),87.14 CPM and 107.7 CPM
same,Counts per million (CPM) WT_HC101A,gene MT0183 (Rv0174),349 CPM and 411.7 CPM
same,Counts per million (CPM) WT_HC101A,gene MT0241 (Rv0231 fadE4),59.55 CPM and 72.38 CPM
same,Counts per million (CPM) WT_HC101A,gene MT0244 (Rv0233 nrdB),37.26 CPM and 30.02 CPM
same,Counts per million (CPM) WT_HC101A,gene MT0329 (Rv0315),70.6 CPM and 95.13 CPM
same,Counts per million (CPM) WT_HC101A,gene MT0417,28.96 CPM and 22.92 CPM
same,Counts per million (CPM) WT_HC101A,gene MT0423 (Rv0410c pknG),514.1 CPM and 411.9 CPM
same,Counts per million (CPM) WT_HC101A,gene MT0424 (Rv0411c glnH),282.7 CPM and 250 CPM
same,Counts per million (CPM) WT_HC101A,gene MT0425 (Rv0412c),385.5 CPM and 301.3 CPM
same,Counts per million (CPM) WT_HC101A,gene MT0429 (Rv0416),5.818 CPM and 5.876 CPM
same,Counts per million (CPM) WT_HC101A,gene MT0434,27.78 CPM and 21.99 CPM
same,Counts per million (CPM) WT_HC101A,gene MT0524,188.7 CPM and 239.4 CPM
same,Counts per million (CPM) WT_HC101A,gene MT0595 (Rv0569),36.09 CPM and 36.48 CPM
same,Counts per million (CPM) WT_HC101A,gene MT0596 (Rv0570 nrdZ),90.47 CPM and 115.7 CPM
same,Counts per million (CPM) WT_HC101A,gene MT0597 (Rv0571c),81.52 CPM and 88.38 CPM
same,Counts per million (CPM) WT_HC101A,gene MT0599 (Rv0572c),38.44 CPM and 70.87 CPM
same,Counts per million (CPM) WT_HC101A,gene MT0601 (Rv0573c),10.2 CPM and 13.27 CPM
same,Counts per million (CPM) WT_HC101A,gene MT0602 (Rv0574c),28.89 CPM and 33.92 CPM
same,Counts per million (CPM) WT_HC101A,gene MT0637 (Rv0608),30.14 CPM and 24.84 CPM
same,Counts per million (CPM) WT_HC101A,gene MT0735 (Rv0708 rplP),74.26 CPM and 58.88 CPM
same,Counts per million (CPM) WT_HC101A,gene MT0736 (Rv0709 rpmC),109.7 CPM and 91.93 CPM
same,Counts per million (CPM) WT_HC101A,gene MT0741,127.5 CPM and 136.8 CPM
same,Counts per million (CPM) WT_HC101A,gene MT0741.1 (Rv0715 rplX),117.6 CPM and 111 CPM
same,Counts per million (CPM) WT_HC101A,gene MT0742.1 (Rv0717 rpsN),74.79 CPM and 59 CPM
same,Counts per million (CPM) WT_HC101A,gene MT0747 (Rv0722 rpmD),51.71 CPM and 38.11 CPM
same,Counts per million (CPM) WT_HC101A,gene MT0845 (Rv0823c),"1,309.20 CPM and 1,158.35 CPM"
same,Counts per million (CPM) WT_HC101A,gene MT0846 (Rv0824c desA1),"2,534.91 CPM and 2,497.59 CPM"
same,Counts per million (CPM) WT_HC101A,gene MT0877 (Rv0854),32.03 CPM and 42.41 CPM
same,Counts per million (CPM) WT_HC101A,gene MT0898,19.09 CPM and 37.47 CPM
same,Counts per million (CPM) WT_HC101A,gene MT0908 (Rv0885),115.6 CPM and 190.5 CPM
same,Counts per million (CPM) WT_HC101A,gene MT0909 (Rv0886 fprB),22.29 CPM and 38.69 CPM
same,Counts per million (CPM) WT_HC101A,gene MT0911 (Rv0888),8.106 CPM and 5.527 CPM
same,Counts per million (CPM) WT_HC101A,gene MT1002 (Rv0974c accD2),418.3 CPM and 235.3 CPM
same,Counts per million (CPM) WT_HC101A,gene MT1019 (Rv0990c),34.58 CPM and 43.4 CPM
same,Counts per million (CPM) WT_HC101A,gene MT1020,343 CPM and 416.1 CPM
same,Counts per million (CPM) WT_HC101A,gene MT1056 (Rv1037c),452 CPM and 332.9 CPM
same,Counts per million (CPM) WT_HC101A,gene MT1095 (Rv1065),232.6 CPM and 199.4 CPM
same,Counts per million (CPM) WT_HC101A,gene MT1106 (Rv1076 lipU),66.48 CPM and 91.17 CPM
same,log2 Fold change,gene MT1106 (Rv1076 lipU),−1.02
same,Counts per million (CPM) WT_HC101A,gene MT1126 (Rv1094 dosA2),"2,656.44 CPM and 2,736.08 CPM"
same,log2 Fold change,gene MT1126 (Rv1094 dosA2),−1.332
same,Counts per million (CPM) WT_HC101A,gene MT1214 (Rv1177 fdxC),754.7 CPM and 847.9 CPM
same,log2 Fold change,gene MT1214 (Rv1177 fdxC),−1.296
same,Counts per million (CPM) WT_HC101A,gene MT1233 (Rv1195 PE),121.2 CPM and 83.32 CPM
same,log2 Fold change,gene MT1233 (Rv1195 PE),−2.267
same,Counts per million (CPM) WT_HC101A,gene MT1234 (Rv1196 PPE),155.8 CPM and 129.3 CPM
same,log2 Fold change,gene MT1234 (Rv1196 PPE),−1.874
same,Counts per million (CPM) WT_HC101A,gene MT1235,117.9 CPM and 84.42 CPM
same,log2 Fold change,gene MT1235,−1.606
same,Counts per million (CPM) WT_HC101A,gene MT1236,78.32 CPM and 44.97 CPM
same,log2 Fold change,gene MT1236,−2.018
same,Counts per million (CPM) WT_HC101A,gene MT1314 (Rv1277),209.3 CPM and 172.8 CPM
same,log2 Fold change,gene MT1314 (Rv1277),−1.113
same,Counts per million (CPM) WT_HC101A,gene MT1322 (Rv1284),175.1 CPM and 138.8 CPM
same,log2 Fold change,gene MT1322 (Rv1284),−2.008
same,log2 Fold change,gene MT1385,−1.321
same,Counts per million (CPM) WT_HC101A,gene MT1414.1,7.648 CPM and 6.866 CPM
same,log2 Fold change,gene MT1414.1,−1.264
same,Counts per million (CPM) WT_HC101A,gene MT1430 (Rv1386 PE),44.55 CPM and 57.72 CPM
same,log2 Fold change,gene MT1430 (Rv1386 PE),−1.047
same,Counts per million (CPM) WT_HC101A,gene MT1431 (Rv1387 PPE),210.4 CPM and 246.3 CPM
same,log2 Fold change,gene MT1431 (Rv1387 PPE),−1.353
same,Counts per million (CPM) WT_HC101A,gene MT1454 (Rv1439c),4.118 CPM and 4.771 CPM
same,log2 Fold change,gene MT1454 (Rv1439c),1.126
same,Counts per million (CPM) WT_HC101A,gene MT1585.1,142.6 CPM and 232.8 CPM
same,log2 Fold change,gene MT1585.1,−2.593
same,Counts per million (CPM) WT_HC101A,gene MT1586 (Rv1535),48.51 CPM and 45.15 CPM
same,log2 Fold change,gene MT1586 (Rv1535),−1.6
same,Counts per million (CPM) WT_HC101A,gene MT1600 (Rv1550 fadD11),9.74 CPM and 9.135 CPM
same,log2 Fold change,gene MT1600 (Rv1550 fadD11),−1.251
same,Counts per million (CPM) WT_HC101A,gene MT1627,14.64 CPM and 15.53 CPM
same,log2 Fold change,gene MT1627,−1.258
same,Counts per million (CPM) WT_HC101A,gene MT1638 (Rv1602 hisH),205 CPM and 158.6 CPM
same,log2 Fold change,gene MT1638 (Rv1602 hisH),−1.137
same,Counts per million (CPM) WT_HC101A,gene MT1692 (Rv1654 argB),192.1 CPM and 153.5 CPM
same,log2 Fold change,gene MT1692 (Rv1654 argB),−1.311
same,Counts per million (CPM) WT_HC101A,gene MT1693 (Rv1655 argD),174.4 CPM and 139.2 CPM
same,log2 Fold change,gene MT1693 (Rv1655 argD),−1.193
same,Counts per million (CPM) WT_HC101A,gene MT1694 (Rv1656 argF),117.5 CPM and 85.88 CPM
same,log2 Fold change,gene MT1694 (Rv1656 argF),−1.846
same,Counts per million (CPM) WT_HC101A,gene MT1725 (Rv1685c),12.49 CPM and 11.64 CPM
same,log2 Fold change,gene MT1725 (Rv1685c),−1.401
same,Counts per million (CPM) WT_HC101A,gene MT1726 (Rv1686c),24.78 CPM and 27.99 CPM
same,log2 Fold change,gene MT1726 (Rv1686c),−1.625
same,Counts per million (CPM) WT_HC101A,gene MT1727 (Rv1687c),20.07 CPM and 22.46 CPM
same,log2 Fold change,gene MT1727 (Rv1687c),−1.58
same,Counts per million (CPM) WT_HC101A,gene MT1736,131.3 CPM and 161 CPM
same,log2 Fold change,gene MT1736,−1
same,log2 Fold change,gene MT1774 (Rv1733c),−4.488
same,Counts per million (CPM) WT_HC101A,gene MT1775,38.24 CPM and 49.69 CPM
same,log2 Fold change,gene MT1775,−3.82
same,Counts per million (CPM) WT_HC101A,gene MT1776 (Rv1735c),2.811 CPM and 3.782 CPM
same,log2 Fold change,gene MT1776 (Rv1735c),−2.478
same,log2 Fold change,gene MT1777,−4.737
same,log2 Fold change,gene MT1778 (Rv1736c narX),−5.086
same,log2 Fold change,gene MT1779 (Rv1737c narK2),−4.629
same,log2 Fold change,gene MT1780 (Rv1738),−4.515
same,Counts per million (CPM) WT_HC101A,gene MT1797,11.31 CPM and 15.53 CPM
same,log2 Fold change,gene MT1797,−1.988
same,Counts per million (CPM) WT_HC101A,gene MT1809 (Rv1760),57.13 CPM and 39.45 CPM
same,log2 Fold change,gene MT1809 (Rv1760),1.101
same,Counts per million (CPM) WT_HC101A,gene MT1822,12.16 CPM and 7.273 CPM
same,log2 Fold change,gene MT1822,−1.109
